Where “and” joins values, the source holds several entries; their conditions need not be identical. Equal entries are not always repeated. The campaign covered roughly 360,000 compounds. About 7,500 (2.1%) were called active. Inconclusive results, whose numbers are uncertain, are shown with a selection of clear calls. Calls follow the shape of the dose curve; as a rule, active = well fitted inhibition curve with a large enough effect; inconclusive = small, poorly fitted or top-dose-only effect, or effect the other way; inactive = flat fitted curve, though single readings scatter. Potencies beside an inconclusive call are fits to weak or partial responses and may not hold up.
Assay: Nrf2 qHTS screen for inhibitors; also: nearly all actives have a fitted effect of over 60% in size
Conditions: A549 ARE-Fluc reporter, luciferase luminescence, 18-24 h; activity change, negative = inhibition: at 46 µM (top of the series)
In short: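 A549 ARE_Fluc cells, 5000/well, 5% FBS OPTI-MEM; compounds in dose-response, 18-24 h at 37 °C/5% CO2; CellTiter-Fluor viability read (Ex 405/Em 525), then BugLite luciferase luminescence = Nrf2 activity.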
% is scaled to controls: 0 for no effect and ±100 for the full control effect; potency is read from the fitted curve at half-maximal effect.

| SMILES | Potency | activity change, negative = inhibition |
| --- | --- | --- |
| CCOC(=O)c1sc(=S)n(-c2ccccc2Cl)c1C | inconclusive: 29.1 µM [activator, single point] | – |
| CC(C)(C)OC(=O)NCCCC[C@@H](C(=O)N1CCN(C(=O)OC(C)(C)C)CC1)n1cc(CCC(=O)O)nn1 | – | inactive: 9.88% |
| Cc1cc(C)cc(NC(=O)N2CCN3CCCCC3C2)c1 (stereo unspecified) | inconclusive: 4.61 µM [activator, full curve, poor fit] | – |
| COc1ccc(C(=O)Nc2nc3ccccc3[nH]2)cc1 | inconclusive: 1.03 µM [activator, partial curve, poor fit] | – |
| O=C(NC1CCCCC1)c1c[nH]c2ccc(S(=O)(=O)Nc3ccccc3F)cc2c1=O | inconclusive: 29.1 µM [falling, single point] | – |
| COc1ccc(NC(=O)CCc2nnc3ccc(N4CCC(C)CC4)nn23)cc1OC | inconclusive: 5.17 µM [falling, single point] | – |
| O=C1CC(c2ccc(Cl)cc2)CC(O)=C1C=NCc1ccc(Cl)c(Cl)c1 (stereo unspecified) | inconclusive: 29.1 µM [falling, single point] | – |
| Cc1cccc(NC(=S)N/C(=N/S(=O)(=O)c2ccccc2)c2ccccc2)c1 | inactive and inconclusive: 25.9 µM [activator, single point] | – |
| CCOC(=O)N1CCC(NC(=O)CS(=O)Cc2nc(-c3ccccc3C)oc2C)CC1 (stereo unspecified) | inconclusive: 23.1 µM [falling, single point] | – |
| COc1ccc([C@H]2CC(=O)C=C(c3ccc(CNC(=O)OC(C)(C)C)cc3)C2)cc1 | inconclusive: 16.4 µM [falling, single point] | – |
| CC(=O)N1CC=CC1(CC(C)C)C(=O)NCCc1c[nH]c2ccccc12 (stereo unspecified) | inconclusive: 2.06 µM [activator, full curve, poor fit] | – |
| COc1ccc(Cn2nnnc2C(C(C)C)N(Cc2ccco2)Cc2cccs2)cc1 (stereo unspecified) | inconclusive: 29.1 µM [falling, single point] | – |
| CC(C)c1ccc(-n2nc3ccc(N)cc3n2)cc1 | inconclusive: 6.51 µM [activator, partial curve] | – |
| O=C(CCC1CCCN(C(=O)Cc2ccc(F)cc2)C1)N1CCN(c2ccccn2)CC1 (stereo unspecified) | inconclusive: 29.1 µM [falling, single point] | – |
| C=CCNc1nc(C(F)(F)F)nc2c1nnn2Cc1ccccc1Cl | – | inactive: 9.6% |
| CCCCCCSc1ccc([C@H]2N[C@@](CC(C)C)(C(=O)OC)[C@H]3C(=O)N(C)C(=O)[C@@H]23)cc1 | inconclusive: 29.1 µM [falling, single point] | – |
| CCOC(=O)C1(Cc2cccc(OC)c2)CCCN(C(=O)CSC)C1 (stereo unspecified) | inconclusive: 16.4 µM [activator, partial curve] | – |
| Cc1cc(C(=O)NCCc2ccc(Cl)cc2)c2c(C)nn(-c3cccc(F)c3)c2n1 | inconclusive: 0.58 µM [activator, full curve] | – |
| O=C(C1CCCN(S(=O)(=O)c2cccc3cccnc23)C1)N1CCc2ccccc21 (stereo unspecified) | inconclusive: 29.1 µM [falling, single point] | – |
| COc1ccc(NC(=O)C2=CC(c3ccc(OC)c(OC)c3)=NS(=O)(=O)N2C)cc1 | inconclusive: 25.9 µM [falling, partial curve, poor fit] | – |
| CNC(=O)CSc1nnc(-c2ccco2)n1-c1cc(C)ccc1C | inconclusive: 7.31 µM [falling, single point] | – |

Taken from above.
In Potency, COc1ccc(NC(=O)C2=CC(c3ccc(OC)c(OC)c3)=NS(=O)(=O)N2C)cc1 has the entry inconclusive: 25.9 µM [falling, partial curve, poor fit]
In Potency, COc1ccc(Cn2nnnc2C(C(C)C)N(Cc2ccco2)Cc2cccs2)cc1 (stereo unspecified) has the entry inconclusive: 29.1 µM [falling, single point]

The list continues:

| SMILES | Potency | activity change, negative = inhibition |
| --- | --- | --- |
| O=C(Nc1ccccc1)c1ccc2c(c1)OCCO2 | inconclusive: 10.3 µM [activator, partial curve] | – |
| Nc1c(C(=O)NC2CCCC2)c2nc3ccccc3nc2n1/N=C/c1ccco1 | inconclusive: 0.92 µM [falling, partial curve, poor fit] | – |
| CC1CCN(CC(=O)Nc2nc(-c3ccccc3)cs2)CC1 | – | inactive: 7.51% |
| Cc1ccc(C(=O)c2cc([N+](=O)[O-])ccc2N2CCCCC2)c(C)c1 | inconclusive: 11.6 µM [activator, partial curve, poor fit] | – |
| COc1ccc(N=Nc2ccc3ccccc3c2)c(O)c1 | inconclusive: 20.6 µM [activator, partial curve] | – |
| Cc1ccc(NC(=O)CN(C)c2ccc(S(=O)(=O)N3CCCC3)cn2)cc1 | inconclusive: 29.1 µM [activator, single point] | – |
| CC1CCN(C(=O)CSc2ccc(-c3ccc(F)cc3)nn2)CC1 | – | inactive: -18.3% |
| CCOC(=O)C1CCCN(S(=O)(=O)c2cc(OCC(=O)NC3CCCCC3)c(C)cc2Cl)C1 (stereo unspecified) | inconclusive: 29.1 µM [falling, single point] | – |
| Nc1ncccc1OCc1cccc(C(F)(F)F)c1 | active: 16.4 µM | – |
| N=c1c2c(ncn1-c1ccccc1)Oc1ccc3ccccc3c1C2c1ccc2c(c1)CCO2 (stereo unspecified) | inconclusive: 29.1 µM [falling, single point] | – |
| CCc1ccc(CNc2ccc3c(c2)ncn3C)cc1 | inconclusive: 2.59 µM [activator, full curve] | – |
| CCc1ccc(NC(=O)CSc2nc(N)c(NC(=O)c3ccc(F)c(F)c3)c(=O)[nH]2)cc1 | – | inactive: -17.8% |
| COc1ccccc1-n1cnnc1SCC(=O)NC1CCCC1 | – | inactive: -3.85% |
| O=c1[nH]c(-c2ccccc2)nc2sc(-c3ccccc3)cc12 | inconclusive: 8.2 µM [activator, partial curve] | – |
| Cc1ccc(NS(=O)(=O)c2cccc(C(=O)NNC(=O)c3cccn3C)c2)c(C)c1 | inconclusive: 29.1 µM [activator, partial curve, poor fit] | – |
| COc1ccc(C2Nc3ccccc3C(=O)N2Cc2ccco2)cc1 (stereo unspecified) | inactive | – |
| Cc1ccc(N2CC(C(=O)NCCN3CCOCC3)CC2=O)cc1C (stereo unspecified) | inconclusive: 8.2 µM [activator, partial curve, poor fit] | – |
| O=C(Nc1ccc(F)cc1)c1nn(-c2ccccc2)c(=O)cc1Cl | active: 18.4 µM | – |
| COc1ccc(/C=C2/CCCc3ccccc3C2=O)cc1 | inconclusive: 20.6 µM [activator, single point] | – |
| CC1=CC(=O)CC(C)(C)C1(O)/C=C/C(C)=C/C(=O)O (stereo unspecified) | inconclusive: 29.1 µM [activator, single point] | – |

Source: PubChem BioAssay AID504444 (National Center for Advancing Translational Sciences (NCATS), 2011)
